Source: paper PMC2845627
No constants are given. Whether binding was seen depends on the method and setting. Some entries that bind do so weakly or less than the wild type. For some assays here: Sequences can lack the tags named with a protein.

T1: AtGyrB3 (Hybrigenics two-hybrid service) (A. thaliana) (UniProt Q8VY11)
T1 sequence: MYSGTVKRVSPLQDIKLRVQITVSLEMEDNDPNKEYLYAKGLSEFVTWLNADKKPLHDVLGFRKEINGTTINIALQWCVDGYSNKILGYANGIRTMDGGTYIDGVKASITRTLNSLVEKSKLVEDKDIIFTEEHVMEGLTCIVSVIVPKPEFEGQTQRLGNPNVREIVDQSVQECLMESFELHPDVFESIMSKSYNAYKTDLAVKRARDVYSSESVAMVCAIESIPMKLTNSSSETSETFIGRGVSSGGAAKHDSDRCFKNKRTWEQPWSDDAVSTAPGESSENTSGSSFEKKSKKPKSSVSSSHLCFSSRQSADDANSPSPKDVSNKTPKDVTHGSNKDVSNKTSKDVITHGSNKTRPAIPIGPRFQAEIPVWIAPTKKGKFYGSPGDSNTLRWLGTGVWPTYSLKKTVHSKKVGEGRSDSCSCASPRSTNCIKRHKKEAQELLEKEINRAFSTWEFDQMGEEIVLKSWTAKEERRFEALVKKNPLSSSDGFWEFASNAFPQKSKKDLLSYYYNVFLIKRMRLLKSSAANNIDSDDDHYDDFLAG

T2: AtGyrA (Hybrigenics two-hybrid service) (A. thaliana) (UniProt Q9CAF6)
T2 sequence: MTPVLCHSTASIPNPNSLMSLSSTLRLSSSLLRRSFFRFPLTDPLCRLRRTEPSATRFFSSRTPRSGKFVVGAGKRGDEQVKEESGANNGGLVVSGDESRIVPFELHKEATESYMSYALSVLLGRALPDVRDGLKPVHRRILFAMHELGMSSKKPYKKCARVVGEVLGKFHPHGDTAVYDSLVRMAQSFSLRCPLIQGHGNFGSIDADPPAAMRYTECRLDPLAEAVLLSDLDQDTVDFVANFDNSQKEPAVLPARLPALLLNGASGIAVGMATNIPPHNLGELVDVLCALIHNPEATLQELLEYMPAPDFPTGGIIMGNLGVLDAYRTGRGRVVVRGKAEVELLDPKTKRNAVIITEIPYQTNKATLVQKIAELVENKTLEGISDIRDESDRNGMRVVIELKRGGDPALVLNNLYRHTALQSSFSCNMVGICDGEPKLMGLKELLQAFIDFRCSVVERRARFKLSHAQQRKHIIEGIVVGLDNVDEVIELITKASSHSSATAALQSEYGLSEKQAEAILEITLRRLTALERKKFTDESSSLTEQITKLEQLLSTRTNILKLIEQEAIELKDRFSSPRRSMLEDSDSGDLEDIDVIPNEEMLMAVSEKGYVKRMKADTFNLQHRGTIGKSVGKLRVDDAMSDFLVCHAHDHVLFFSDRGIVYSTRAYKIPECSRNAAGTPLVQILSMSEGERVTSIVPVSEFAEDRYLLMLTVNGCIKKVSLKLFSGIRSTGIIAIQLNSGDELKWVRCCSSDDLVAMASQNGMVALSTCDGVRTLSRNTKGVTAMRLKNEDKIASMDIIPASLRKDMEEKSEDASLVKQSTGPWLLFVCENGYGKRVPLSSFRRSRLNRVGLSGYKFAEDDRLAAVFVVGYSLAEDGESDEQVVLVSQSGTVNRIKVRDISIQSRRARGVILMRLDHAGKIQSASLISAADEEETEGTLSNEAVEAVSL

T3: AtGyrA (LexA DNA-binding domain fusion) (A. thaliana) (UniProt Q9CAF6)
T3 sequence: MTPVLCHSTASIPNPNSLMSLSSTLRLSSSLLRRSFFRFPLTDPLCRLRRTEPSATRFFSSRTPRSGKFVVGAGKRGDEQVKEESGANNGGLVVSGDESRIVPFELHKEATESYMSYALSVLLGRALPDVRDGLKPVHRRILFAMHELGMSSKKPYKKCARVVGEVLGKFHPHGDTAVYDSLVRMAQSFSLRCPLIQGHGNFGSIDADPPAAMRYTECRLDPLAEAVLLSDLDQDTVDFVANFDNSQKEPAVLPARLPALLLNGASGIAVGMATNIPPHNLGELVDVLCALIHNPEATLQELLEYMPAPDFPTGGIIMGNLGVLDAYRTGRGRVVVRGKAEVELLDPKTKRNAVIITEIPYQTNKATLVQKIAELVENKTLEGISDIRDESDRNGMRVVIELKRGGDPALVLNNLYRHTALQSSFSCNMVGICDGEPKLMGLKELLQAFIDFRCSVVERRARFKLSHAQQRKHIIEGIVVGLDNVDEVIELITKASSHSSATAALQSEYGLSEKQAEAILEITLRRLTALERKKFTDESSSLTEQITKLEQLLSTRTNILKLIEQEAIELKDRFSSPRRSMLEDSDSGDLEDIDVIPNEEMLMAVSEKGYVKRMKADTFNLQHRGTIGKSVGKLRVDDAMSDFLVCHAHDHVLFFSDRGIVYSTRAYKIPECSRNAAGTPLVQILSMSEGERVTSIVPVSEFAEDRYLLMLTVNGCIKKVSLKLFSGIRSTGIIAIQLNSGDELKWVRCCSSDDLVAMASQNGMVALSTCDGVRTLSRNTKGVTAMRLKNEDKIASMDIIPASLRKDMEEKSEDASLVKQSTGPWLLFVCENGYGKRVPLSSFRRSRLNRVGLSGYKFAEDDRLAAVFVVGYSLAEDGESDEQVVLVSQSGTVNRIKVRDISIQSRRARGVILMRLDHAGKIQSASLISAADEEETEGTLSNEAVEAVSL


Tests used:
[1] = target: T1, AtGyrB3 (Hybrigenics two-hybrid service) (A. thaliana); assay: two-hybrid; yeast two-hybrid service (Hybrigenics); AtGyrA or AtGyrB3 used as the bait
[2] = target: T2, AtGyrA (Hybrigenics two-hybrid service) (A. thaliana); assay: as above
[3] = target: T3, AtGyrA (LexA DNA-binding domain fusion) (A. thaliana); assay: two-hybrid; Matchmaker LexA Two-Hybrid System (Clontech); bait fused to the LexA DNA-binding domain, prey fused to the B42 activation domain

Row | binding [1] | binding [2] | binding [3] | Binder
1 | no binding | no binding |  | AtGyrB2 (Hybrigenics two-hybrid service) (protein, UniProt Q94BZ7 1-732) MALLQRASYLRLYYLRLMGSRPRLFSSSLSPALHRHSSTLSSPPFSSPSPSFRLKFQLTSVLSQRLIQRNAISSRFLSTEASQETTTSKGYSSEQIQVLEGLDPVRKRPGMYIGSTGSRGLHHLVYEILDNAIDEAQAGYASKVDVVLHADGSVSVVDNGRGIPTDLHPATKKSSLETVLTVLHAGGKFGGTSSGYSVSGGLHGVGLSVVNALSEALEVSVWRDGMEHKQNYSRGKPITTLTCRVLPLESKGTKGTSIRFWPDKEVFTTAIEFDHNTIAGRIRELAFLNPKVTISLKKEDDDPEKTQYSEYSFAGGLTEYVSWLNTDKNPIHDVLGFRREINGATVDVALQWCSDAYSDTMLGYANSIRTIDGGTHIEGVKASLTRTLNTLAKKSKTVKEKDISLSGEHVREGLTCIVSVKVPNPEFEGQTKTRLGNPEVRKIVDQSVQEYLTEFLELHPDILESIISKSLNAYKAALAAKRARELVRSKSVLKSSSLPGKLADCSSTDPEVSEIFIVEGDSAGGSAKQGRDRRFQAILPLRGKILNIERKDEAAMYKNEEIQNLILGLGLGVKGEDFKKENLRYHKIIILTDADVDGAHIRTLLLTFFFRYQRALFDAGCIYVGVPPLFKVERGKNAQYCYDDADLKKITSNFPANASYNIQRFKGLGEMMPEQLWETTMNPETRILKQLVVDDIAEANMTFSSLMGARVDVRKELIKNAATRINLQRLDI
2 |  |  | binds | AtGyrB1 (B42 activation domain fusion) (protein, UniProt Q9SS38 1-730) MALVQRQHSYLLRYFRLMASRPRPRLFSHSLYPSLHRHSSALSSSTPRIKFQLANVFSQRLVQRNAVSPKSFMSSTMESLQESSTSKDYSSEHIQVLEGLDPVRKRPGMYIGSTGSRGLHHLVYEILDNAIDEAQAGFASKIDVVLHSDDSVSISDNGRGIPTDLHPATGKSSLETVLTVLHAGGKFGGKSSGYSVSGGLHGVGLSVVNALSEALEVIVRRDGMEFQQKYSRGKPVTTLTCHVLPPESRGTQGTCIRFWPDKEVFTTAIQFDHNTIAGRIRELAFLNPKVTISLKKEDDDPERDVYSEYFYAGGLTEYVSWLNTDKKPLHDVLGFRKEINGSTVDVSLQWCSDAYSDTMLGYANSIRTIDGGTHIEGVKASLTRTLNSLAKKLKVIKEKDISLSGEHVREGLTCIVSVKVPNPEFEGQTKTRLGNPEVRKIVDQSVQEYLTEYLELHPDVLESIISKSLNAYKAALAAKRARELVRSKSVLKSSSLPGKLADCSSTDPAESEIFIVEGDSAGGSAKQGRDRRFQAILPLRGKILNIERKDEAAMYKNEEIQNLILGLGLGVKGEDFNKENLRYHKIIILTDADVDGAHIRTLLLTFFFRYQRALFDAGCIYVGVPPLFKVERGKQAHYCYDDAALKKITASFPGNASYNIQRFKGLGEMMPAQLWETTMNPDTRILKQLVVDDAAETNMVFSSLMGARVDVRKELIKSAATRMNLENLDI
3 | no binding | binds |  | AtGyrB1 (Hybrigenics two-hybrid service) (protein, UniProt Q9SS38 1-730) MALVQRQHSYLLRYFRLMASRPRPRLFSHSLYPSLHRHSSALSSSTPRIKFQLANVFSQRLVQRNAVSPKSFMSSTMESLQESSTSKDYSSEHIQVLEGLDPVRKRPGMYIGSTGSRGLHHLVYEILDNAIDEAQAGFASKIDVVLHSDDSVSISDNGRGIPTDLHPATGKSSLETVLTVLHAGGKFGGKSSGYSVSGGLHGVGLSVVNALSEALEVIVRRDGMEFQQKYSRGKPVTTLTCHVLPPESRGTQGTCIRFWPDKEVFTTAIQFDHNTIAGRIRELAFLNPKVTISLKKEDDDPERDVYSEYFYAGGLTEYVSWLNTDKKPLHDVLGFRKEINGSTVDVSLQWCSDAYSDTMLGYANSIRTIDGGTHIEGVKASLTRTLNSLAKKLKVIKEKDISLSGEHVREGLTCIVSVKVPNPEFEGQTKTRLGNPEVRKIVDQSVQEYLTEYLELHPDVLESIISKSLNAYKAALAAKRARELVRSKSVLKSSSLPGKLADCSSTDPAESEIFIVEGDSAGGSAKQGRDRRFQAILPLRGKILNIERKDEAAMYKNEEIQNLILGLGLGVKGEDFNKENLRYHKIIILTDADVDGAHIRTLLLTFFFRYQRALFDAGCIYVGVPPLFKVERGKQAHYCYDDAALKKITASFPGNASYNIQRFKGLGEMMPAQLWETTMNPDTRILKQLVVDDAAETNMVFSSLMGARVDVRKELIKSAATRMNLENLDI
